In the supplement of paper PMC10849652:
This is one part of the list.

Sequences of proteins named here, by UniProt entry; tags and fusion partners are left off. A change or cut given only in a name is not applied to a line headed by its entry.
UniProt Q9H6W3: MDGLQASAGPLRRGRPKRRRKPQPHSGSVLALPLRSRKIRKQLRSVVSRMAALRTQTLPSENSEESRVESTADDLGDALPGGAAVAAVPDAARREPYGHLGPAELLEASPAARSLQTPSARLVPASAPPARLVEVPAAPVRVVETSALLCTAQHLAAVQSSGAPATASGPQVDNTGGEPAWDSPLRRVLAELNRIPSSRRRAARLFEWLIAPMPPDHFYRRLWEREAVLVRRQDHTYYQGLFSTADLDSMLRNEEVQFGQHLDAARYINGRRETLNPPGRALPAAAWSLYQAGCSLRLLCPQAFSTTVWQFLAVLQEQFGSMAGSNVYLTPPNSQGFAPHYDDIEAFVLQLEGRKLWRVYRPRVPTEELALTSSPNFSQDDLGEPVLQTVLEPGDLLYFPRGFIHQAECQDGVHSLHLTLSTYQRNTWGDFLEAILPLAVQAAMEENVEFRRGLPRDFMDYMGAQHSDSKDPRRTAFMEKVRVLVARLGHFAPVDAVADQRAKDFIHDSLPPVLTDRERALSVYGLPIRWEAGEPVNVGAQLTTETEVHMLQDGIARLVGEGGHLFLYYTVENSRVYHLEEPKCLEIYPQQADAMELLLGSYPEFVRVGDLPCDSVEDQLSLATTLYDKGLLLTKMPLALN
UniProt Q9Y225: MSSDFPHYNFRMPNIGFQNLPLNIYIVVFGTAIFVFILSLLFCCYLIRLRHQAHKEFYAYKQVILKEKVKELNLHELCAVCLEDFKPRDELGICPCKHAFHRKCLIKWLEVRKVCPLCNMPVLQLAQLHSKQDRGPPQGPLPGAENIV
UniProt Q15493: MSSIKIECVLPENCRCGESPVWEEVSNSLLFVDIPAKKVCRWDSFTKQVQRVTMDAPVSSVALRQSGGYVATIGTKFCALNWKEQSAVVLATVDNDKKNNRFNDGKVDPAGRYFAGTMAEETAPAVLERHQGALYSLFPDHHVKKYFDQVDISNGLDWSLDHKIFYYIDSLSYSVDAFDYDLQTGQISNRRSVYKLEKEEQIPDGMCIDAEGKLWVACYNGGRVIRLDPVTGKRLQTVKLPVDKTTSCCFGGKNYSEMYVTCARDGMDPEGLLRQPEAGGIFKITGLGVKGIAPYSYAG
UniProt Q9Y3C5: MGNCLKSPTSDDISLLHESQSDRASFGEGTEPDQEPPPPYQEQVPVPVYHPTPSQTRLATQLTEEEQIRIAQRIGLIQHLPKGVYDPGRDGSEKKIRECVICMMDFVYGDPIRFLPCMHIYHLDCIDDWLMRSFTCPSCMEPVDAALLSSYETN
UniProt P48380: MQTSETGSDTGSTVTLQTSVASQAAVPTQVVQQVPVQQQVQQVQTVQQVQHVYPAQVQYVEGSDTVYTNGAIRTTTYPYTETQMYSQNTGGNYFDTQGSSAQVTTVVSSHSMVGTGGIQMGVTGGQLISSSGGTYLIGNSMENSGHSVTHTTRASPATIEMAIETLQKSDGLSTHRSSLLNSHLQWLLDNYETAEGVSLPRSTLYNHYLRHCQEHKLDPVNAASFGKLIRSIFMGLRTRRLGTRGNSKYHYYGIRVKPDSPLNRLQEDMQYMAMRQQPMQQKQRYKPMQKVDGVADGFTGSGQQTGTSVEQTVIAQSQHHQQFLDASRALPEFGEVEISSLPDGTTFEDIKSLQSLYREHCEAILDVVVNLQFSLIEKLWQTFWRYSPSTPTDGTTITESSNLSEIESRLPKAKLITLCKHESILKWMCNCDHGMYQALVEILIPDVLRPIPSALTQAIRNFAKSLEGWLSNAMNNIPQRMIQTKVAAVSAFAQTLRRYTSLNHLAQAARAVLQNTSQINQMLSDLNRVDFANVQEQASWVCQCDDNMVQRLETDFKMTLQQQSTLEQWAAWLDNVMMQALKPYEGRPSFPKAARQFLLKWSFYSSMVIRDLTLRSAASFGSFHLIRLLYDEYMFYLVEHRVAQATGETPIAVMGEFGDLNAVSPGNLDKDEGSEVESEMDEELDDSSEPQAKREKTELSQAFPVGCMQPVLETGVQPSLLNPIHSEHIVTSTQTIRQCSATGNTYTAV
UniProt Q8WU17: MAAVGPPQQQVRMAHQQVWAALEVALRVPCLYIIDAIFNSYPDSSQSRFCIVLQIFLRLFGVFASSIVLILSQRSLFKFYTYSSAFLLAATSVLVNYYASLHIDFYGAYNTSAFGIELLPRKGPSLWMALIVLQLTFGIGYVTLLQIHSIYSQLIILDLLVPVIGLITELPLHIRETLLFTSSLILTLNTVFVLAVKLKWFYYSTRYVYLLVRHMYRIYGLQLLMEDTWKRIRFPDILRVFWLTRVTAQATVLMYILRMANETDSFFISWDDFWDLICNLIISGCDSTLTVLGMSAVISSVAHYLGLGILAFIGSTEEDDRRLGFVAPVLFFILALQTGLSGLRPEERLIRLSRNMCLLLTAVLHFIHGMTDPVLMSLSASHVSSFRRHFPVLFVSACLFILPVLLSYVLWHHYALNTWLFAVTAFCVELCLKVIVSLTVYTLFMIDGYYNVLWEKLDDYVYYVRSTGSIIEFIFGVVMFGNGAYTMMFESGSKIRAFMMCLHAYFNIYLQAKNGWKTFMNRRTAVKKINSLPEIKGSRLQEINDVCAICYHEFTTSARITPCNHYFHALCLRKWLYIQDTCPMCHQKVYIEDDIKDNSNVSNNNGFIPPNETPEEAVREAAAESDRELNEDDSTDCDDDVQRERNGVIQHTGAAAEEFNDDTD
UniProt A6NEQ0: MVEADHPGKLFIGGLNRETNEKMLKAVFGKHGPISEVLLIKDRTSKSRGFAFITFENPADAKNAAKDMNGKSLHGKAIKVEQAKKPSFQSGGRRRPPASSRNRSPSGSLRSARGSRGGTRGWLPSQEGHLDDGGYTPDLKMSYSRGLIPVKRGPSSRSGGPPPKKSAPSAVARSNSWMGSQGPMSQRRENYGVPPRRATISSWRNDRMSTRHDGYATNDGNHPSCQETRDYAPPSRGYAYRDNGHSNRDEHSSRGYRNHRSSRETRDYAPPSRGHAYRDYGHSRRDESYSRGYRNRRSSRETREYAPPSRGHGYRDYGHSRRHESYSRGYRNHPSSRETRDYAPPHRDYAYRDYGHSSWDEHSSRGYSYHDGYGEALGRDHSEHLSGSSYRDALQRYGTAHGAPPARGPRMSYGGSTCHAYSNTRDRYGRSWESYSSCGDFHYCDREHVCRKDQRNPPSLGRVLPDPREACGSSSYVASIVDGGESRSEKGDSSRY
UniProt Q06587: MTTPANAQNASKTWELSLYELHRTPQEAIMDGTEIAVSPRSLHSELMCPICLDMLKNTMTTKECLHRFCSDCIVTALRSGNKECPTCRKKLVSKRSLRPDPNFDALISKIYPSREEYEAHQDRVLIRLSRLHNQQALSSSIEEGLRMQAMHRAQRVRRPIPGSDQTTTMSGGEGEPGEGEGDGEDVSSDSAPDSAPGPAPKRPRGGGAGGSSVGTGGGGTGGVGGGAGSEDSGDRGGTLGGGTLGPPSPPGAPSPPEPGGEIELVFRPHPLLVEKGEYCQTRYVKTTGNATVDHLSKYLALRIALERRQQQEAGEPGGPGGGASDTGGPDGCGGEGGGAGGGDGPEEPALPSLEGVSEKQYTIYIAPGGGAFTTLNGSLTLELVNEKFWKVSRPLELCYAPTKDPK
UniProt Q6NTF9: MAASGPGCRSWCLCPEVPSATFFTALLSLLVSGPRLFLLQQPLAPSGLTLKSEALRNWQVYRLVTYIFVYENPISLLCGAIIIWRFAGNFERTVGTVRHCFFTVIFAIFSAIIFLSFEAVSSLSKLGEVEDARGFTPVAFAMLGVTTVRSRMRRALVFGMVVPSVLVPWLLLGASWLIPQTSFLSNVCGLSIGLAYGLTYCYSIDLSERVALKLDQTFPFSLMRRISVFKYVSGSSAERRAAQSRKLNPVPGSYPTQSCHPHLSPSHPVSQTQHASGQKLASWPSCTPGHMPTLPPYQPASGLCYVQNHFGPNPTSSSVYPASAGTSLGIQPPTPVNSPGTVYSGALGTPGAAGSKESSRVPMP
UniProt P34096: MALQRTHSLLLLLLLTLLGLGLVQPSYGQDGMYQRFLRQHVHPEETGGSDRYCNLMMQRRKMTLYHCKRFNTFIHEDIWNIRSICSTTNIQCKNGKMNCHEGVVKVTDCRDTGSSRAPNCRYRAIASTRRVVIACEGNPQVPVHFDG
UniProt Q96K19: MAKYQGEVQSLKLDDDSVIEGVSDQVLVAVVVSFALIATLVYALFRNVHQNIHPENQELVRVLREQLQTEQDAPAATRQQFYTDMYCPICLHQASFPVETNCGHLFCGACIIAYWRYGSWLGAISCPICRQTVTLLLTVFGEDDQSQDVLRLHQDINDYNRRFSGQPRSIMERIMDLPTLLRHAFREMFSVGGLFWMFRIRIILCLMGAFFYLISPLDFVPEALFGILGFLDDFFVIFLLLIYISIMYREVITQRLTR
UniProt O43566: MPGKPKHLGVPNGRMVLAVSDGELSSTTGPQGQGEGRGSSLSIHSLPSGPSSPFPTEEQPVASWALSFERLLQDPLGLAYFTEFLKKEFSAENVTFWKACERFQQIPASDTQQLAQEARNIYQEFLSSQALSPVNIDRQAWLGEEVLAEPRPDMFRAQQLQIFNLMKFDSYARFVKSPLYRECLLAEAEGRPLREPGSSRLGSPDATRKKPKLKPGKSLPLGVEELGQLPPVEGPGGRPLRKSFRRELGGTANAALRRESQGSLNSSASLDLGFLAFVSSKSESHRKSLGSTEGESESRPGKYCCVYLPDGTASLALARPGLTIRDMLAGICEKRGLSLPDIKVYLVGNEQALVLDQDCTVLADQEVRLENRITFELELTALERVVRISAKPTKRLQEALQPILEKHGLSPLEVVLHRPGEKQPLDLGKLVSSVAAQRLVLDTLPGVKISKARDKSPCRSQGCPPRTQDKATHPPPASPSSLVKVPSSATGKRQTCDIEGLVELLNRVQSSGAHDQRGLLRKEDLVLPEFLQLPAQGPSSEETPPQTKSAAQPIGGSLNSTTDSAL
UniProt Q96GF1: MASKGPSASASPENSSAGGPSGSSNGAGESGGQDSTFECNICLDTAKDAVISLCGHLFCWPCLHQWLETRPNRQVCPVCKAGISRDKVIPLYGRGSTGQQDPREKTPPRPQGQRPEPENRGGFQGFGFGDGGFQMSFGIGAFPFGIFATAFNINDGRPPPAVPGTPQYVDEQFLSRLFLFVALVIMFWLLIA
UniProt Q9ULI2: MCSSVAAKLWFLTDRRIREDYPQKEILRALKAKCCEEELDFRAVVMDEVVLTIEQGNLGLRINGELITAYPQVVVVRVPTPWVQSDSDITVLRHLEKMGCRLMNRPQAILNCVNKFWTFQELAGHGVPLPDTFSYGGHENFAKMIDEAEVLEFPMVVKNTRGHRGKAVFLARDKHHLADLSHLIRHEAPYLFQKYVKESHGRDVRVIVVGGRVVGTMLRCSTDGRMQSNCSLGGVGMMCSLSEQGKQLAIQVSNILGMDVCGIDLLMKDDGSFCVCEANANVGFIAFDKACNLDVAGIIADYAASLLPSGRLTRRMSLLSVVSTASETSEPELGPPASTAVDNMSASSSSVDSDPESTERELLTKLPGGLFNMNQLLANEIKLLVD
UniProt Q86XS8: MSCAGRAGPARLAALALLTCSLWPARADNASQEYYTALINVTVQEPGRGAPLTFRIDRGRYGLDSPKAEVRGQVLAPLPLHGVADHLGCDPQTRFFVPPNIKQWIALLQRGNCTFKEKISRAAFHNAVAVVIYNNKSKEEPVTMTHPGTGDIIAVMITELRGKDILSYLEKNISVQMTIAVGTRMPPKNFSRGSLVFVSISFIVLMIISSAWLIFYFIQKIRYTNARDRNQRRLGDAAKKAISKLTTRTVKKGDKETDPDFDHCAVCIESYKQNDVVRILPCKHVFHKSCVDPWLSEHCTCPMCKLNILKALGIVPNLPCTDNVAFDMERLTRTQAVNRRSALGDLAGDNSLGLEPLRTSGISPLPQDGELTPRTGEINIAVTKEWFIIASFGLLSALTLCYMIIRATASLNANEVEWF

Each target was assayed with CNCc1ccc(-c2[nH]c3cc(F)cc4c3c2CCNC4=O)cc1 [rucaparib] (assay: log2 fold change, soluble protein after heating vs DMSO (PISA); higher = thermal stabilisation; K562 cells, 10 uM, 30 min; active = over 0.2 and 3.5 SD of the protein, either way, in both replicates (recomputed)).
How it was run: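 Soluble protein was quantified by TMTpro 16plex LC-MS/MS after channel sums were equalised. It was obtained as the supernatant after 21,000xg for 90 min from pooled aliquots of K562 cells (2×10^6 cells/mL, 10 μM compound, 30 min) heated for 3 min across 48°C-58°C and extracted in PBS with 0.5% NP-40 at 4°C. Thermal stability values are relative to control samples and come from duplicates. They are given as log2 fold changes.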

| Target | log2 fold change |
| --- | --- |
| RIOX1 (UniProt Q9H6W3) | inactive: 0.493 |
| RNF24 isoform 2 (UniProt Q9Y225) | inactive: 0.097 |
| RGN (UniProt Q15493) | inactive: -0.151 |
| RNF11 (UniProt Q9Y3C5) | inactive: -0.022 |
| RFX3 (UniProt P48380) | inactive: -0.11 |
| RNF139 (UniProt Q8WU17) | inactive: -0.064 |
| RBMY1E (UniProt A6NEQ0) | inactive: -0.055 |
| RING1 (UniProt Q06587) | inactive: 0.027 |
| RHBDD2 isoform 2 (UniProt Q6NTF9) | inactive: -0.094 |
| RNASE4 (UniProt P34096) | inactive: -0.017 |
| RNF170 (UniProt Q96K19) | inactive: -0.028 |
| RGS14 (UniProt O43566) | inactive: 0.009 |
| RNF185 (UniProt Q96GF1) | inactive: 0.006 |
| RIMKLB (UniProt Q9ULI2) | inactive: 0.075 |
| RNF130 (UniProt Q86XS8) | inactive: -0.192 |

Random excerpt: two records from the list

| Target | log2 fold change |
| --- | --- |
| RNF170 (UniProt Q96K19) | inactive: -0.028 |
| RNF130 (UniProt Q86XS8) | inactive: -0.192 |
